From paper PMC10791687, “The Piezo channel is a mechano-sensitive complex component in the mammalian inner ear hair cell” (Nature Communications, 2024)
Results are given in words; binding and its absence hold for the method and conditions named. In cells and extracts the contact can be indirect. Some results given as binding are weak or reduced against the parent protein; the word gives no strength. Sequences can lack the tags named with a protein.

Chains of the proteins cited; added tags and fusions are not shown.
UniProt Q8CD54: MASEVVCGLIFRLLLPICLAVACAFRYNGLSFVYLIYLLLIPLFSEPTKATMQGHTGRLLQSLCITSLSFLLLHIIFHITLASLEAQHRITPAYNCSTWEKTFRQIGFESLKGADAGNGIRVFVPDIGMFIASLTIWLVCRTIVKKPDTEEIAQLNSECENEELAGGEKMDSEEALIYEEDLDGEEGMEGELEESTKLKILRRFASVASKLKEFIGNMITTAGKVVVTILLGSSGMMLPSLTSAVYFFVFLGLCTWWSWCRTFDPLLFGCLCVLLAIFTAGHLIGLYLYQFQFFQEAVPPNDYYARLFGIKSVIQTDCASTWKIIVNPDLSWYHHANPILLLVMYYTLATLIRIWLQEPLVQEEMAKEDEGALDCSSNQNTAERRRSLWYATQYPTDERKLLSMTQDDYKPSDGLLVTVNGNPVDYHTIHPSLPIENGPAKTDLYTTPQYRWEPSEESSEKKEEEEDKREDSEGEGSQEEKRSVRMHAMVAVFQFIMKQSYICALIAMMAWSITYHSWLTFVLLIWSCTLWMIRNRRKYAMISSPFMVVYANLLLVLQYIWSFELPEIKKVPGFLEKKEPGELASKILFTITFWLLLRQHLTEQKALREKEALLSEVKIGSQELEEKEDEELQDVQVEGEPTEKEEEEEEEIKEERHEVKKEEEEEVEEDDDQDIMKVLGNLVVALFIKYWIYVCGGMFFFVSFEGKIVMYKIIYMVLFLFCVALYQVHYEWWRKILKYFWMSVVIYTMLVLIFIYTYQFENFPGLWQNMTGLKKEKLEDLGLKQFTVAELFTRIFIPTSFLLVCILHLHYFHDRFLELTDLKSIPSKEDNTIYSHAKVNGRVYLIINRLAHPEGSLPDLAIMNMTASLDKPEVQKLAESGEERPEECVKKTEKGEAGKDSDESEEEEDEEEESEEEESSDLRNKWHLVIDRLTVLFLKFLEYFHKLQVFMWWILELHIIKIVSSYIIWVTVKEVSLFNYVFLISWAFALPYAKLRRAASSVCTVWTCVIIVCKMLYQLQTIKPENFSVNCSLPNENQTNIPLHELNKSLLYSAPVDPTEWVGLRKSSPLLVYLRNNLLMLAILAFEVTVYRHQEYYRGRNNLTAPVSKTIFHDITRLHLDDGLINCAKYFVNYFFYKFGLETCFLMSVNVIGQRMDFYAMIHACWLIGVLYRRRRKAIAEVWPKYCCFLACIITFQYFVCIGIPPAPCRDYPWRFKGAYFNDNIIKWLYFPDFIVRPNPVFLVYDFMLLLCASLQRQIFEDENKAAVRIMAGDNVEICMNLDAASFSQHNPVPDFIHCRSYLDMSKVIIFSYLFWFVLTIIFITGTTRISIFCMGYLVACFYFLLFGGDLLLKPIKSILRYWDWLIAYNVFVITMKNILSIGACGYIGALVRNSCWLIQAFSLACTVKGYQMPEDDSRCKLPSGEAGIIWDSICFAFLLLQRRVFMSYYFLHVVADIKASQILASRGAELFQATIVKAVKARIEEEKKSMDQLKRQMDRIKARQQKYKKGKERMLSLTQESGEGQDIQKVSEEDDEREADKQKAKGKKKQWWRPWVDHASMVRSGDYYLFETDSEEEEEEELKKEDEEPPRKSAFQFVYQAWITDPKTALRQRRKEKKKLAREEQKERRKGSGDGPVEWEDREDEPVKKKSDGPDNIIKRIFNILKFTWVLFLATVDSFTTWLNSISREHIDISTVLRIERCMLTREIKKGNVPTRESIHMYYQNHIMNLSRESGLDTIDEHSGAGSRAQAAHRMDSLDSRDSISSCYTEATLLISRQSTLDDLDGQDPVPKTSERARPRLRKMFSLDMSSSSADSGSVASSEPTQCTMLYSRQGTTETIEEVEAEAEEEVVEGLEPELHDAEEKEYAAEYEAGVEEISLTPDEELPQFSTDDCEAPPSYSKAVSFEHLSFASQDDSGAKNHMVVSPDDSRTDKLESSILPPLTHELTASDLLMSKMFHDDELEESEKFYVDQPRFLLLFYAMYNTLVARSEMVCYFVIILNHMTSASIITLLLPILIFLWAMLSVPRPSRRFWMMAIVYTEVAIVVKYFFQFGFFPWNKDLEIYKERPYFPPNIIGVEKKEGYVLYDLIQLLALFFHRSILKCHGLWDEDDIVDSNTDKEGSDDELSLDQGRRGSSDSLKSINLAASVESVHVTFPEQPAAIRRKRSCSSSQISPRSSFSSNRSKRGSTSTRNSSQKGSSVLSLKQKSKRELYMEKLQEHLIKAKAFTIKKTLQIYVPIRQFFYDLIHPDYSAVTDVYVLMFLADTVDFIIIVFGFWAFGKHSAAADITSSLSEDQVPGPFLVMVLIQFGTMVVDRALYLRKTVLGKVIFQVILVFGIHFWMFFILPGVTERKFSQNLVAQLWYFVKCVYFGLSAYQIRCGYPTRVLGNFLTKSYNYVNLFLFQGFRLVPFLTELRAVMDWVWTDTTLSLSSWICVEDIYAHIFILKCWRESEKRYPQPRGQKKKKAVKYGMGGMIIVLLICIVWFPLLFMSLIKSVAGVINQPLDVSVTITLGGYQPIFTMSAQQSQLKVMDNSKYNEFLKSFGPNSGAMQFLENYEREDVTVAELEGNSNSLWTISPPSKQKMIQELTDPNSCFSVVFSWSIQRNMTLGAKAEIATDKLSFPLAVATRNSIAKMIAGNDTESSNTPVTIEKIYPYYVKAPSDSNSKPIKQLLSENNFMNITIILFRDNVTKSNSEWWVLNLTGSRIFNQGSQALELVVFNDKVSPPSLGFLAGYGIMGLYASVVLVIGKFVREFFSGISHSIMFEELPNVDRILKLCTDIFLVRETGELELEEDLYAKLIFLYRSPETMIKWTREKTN
UniProt E2JF22: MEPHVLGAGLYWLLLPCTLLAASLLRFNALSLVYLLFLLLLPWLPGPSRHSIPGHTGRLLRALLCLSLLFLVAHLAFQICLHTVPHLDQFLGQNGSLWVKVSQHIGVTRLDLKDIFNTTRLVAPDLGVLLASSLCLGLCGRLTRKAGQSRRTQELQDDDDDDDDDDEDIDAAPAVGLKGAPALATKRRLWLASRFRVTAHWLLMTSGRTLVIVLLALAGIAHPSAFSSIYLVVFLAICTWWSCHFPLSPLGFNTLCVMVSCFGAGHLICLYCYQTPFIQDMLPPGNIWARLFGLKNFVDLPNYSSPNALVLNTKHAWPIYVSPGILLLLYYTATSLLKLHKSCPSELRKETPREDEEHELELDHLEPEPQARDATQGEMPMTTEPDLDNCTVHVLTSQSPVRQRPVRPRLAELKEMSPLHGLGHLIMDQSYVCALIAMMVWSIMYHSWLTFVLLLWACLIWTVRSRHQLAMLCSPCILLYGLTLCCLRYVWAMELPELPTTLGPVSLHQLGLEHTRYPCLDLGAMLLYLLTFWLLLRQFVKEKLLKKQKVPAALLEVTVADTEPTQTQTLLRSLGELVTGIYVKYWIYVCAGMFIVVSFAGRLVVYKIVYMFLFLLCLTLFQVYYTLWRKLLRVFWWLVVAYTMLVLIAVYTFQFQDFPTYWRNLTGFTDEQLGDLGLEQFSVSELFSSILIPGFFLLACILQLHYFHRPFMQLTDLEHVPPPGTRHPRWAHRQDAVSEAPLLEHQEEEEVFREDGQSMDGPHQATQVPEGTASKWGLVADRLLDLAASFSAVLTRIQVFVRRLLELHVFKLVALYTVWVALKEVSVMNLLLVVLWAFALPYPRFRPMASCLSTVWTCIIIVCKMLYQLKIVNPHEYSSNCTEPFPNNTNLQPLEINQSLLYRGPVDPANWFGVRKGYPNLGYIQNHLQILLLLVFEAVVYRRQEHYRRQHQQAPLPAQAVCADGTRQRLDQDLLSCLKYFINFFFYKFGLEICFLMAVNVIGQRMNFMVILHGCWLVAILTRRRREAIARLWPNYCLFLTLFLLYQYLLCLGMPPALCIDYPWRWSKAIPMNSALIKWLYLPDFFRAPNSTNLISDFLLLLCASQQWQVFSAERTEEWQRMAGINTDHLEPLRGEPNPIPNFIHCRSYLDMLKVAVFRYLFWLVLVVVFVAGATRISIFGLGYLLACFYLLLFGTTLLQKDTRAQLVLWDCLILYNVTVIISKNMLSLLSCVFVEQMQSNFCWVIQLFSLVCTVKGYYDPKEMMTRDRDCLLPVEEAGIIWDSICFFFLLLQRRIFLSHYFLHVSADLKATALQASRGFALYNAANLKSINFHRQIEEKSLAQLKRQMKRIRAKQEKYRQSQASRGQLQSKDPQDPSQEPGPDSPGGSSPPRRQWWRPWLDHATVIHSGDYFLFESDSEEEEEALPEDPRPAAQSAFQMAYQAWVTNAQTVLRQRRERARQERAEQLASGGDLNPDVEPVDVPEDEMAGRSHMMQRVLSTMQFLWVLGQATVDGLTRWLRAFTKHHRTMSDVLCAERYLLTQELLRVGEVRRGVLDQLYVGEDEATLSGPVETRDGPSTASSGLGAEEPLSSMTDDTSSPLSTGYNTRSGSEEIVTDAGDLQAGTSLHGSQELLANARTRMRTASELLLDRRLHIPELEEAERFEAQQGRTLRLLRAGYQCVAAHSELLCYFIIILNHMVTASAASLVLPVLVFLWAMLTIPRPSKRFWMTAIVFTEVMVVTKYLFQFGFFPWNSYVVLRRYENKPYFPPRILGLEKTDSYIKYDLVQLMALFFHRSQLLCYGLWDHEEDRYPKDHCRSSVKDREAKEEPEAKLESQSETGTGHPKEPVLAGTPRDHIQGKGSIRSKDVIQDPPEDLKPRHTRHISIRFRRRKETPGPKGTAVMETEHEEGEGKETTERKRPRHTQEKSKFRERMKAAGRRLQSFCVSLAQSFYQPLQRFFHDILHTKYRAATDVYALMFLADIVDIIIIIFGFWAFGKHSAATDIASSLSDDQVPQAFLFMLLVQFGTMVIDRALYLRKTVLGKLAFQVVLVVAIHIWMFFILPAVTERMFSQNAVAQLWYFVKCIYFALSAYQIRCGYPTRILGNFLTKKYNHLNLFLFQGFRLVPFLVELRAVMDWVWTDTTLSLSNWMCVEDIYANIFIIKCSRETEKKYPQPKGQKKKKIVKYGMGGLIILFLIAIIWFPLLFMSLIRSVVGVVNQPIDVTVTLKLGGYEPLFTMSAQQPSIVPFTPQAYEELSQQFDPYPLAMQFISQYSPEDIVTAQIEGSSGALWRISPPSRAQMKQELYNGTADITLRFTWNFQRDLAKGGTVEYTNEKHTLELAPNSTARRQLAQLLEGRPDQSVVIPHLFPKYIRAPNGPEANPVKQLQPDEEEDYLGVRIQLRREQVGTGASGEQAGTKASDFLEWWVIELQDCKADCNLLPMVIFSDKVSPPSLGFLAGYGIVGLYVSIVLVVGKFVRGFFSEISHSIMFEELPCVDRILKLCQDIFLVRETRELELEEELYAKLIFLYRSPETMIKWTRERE

How the values were obtained:
[1] = target: Piezo2-GFP fusion protein (Pz2-GFP), knock-in mouse (mouse) (UniProt Q8CD54); test: co-IP; cochlear tissue of Tmc2-AcGFP: Pz1-tdT and Tmc1-mCherry: Pz2-GFP mice homogenized in Pierce IP lysis buffer; lysate with GFP-antibody at 4 °C overnight, Dynabeads Protein G; immunoblot with anti-tdTomato or anti-mCherry; negative controls from non-transgenic cochlear tissue
[2] = target: Piezo2-GFP fusion protein (Pz2-GFP), knock-in mouse (mouse) (UniProt Q8CD54); test: FRET or BRET; acceptor photobleaching FRET in OHC stereocilia isolated from mice expressing Pz2-GFP and Tmc1-mCherry
[3] = target: FLAG-tagged mouse Piezo1 expressed in HEK 293 cells (mouse) (UniProt E2JF22); test: co-IP; HEK 293 cells transiently co-transfected with Flag-mPz1 and one tagged partner; IP lysis buffer, antibody on Dynabeads Protein G, 20 min at RT; IP with anti-FLAG, anti-mCherry, anti-His, anti-Myc, anti-HA or anti-V5, Western blot with the tag antibodies

| binding [1] | binding [2] | binding [3] | Binder |
| --- | --- | --- | --- |
| binds | binds | – | Tmc1-mCherry fusion protein, transgenic mouse (protein, UniProt Q8R4P5 1-757) MLQIQVEEKEEDTEESSSEEEEDKLPRRESLRPKRKRTRDVINEDDPEPEPEDEETRKAREKERRRRLRRGAEEEEEIDEEELERLKALLDENRQMIATVKCKPWKMEKKIEVLKEAKKFVSENEGALGKGKGKKWFAFKMMMAKKWAKFLRDFENFKAACVPWENKIKAIESQFGSSVASYFLFLRWMYGVNMVLFVLTFSLIMLPEYLWGLPYGSLPRKTVPRAEEASAANFGVLYDFNGLAQYSVLFYGYYDNKRTIGWLNFRLPLSYFLVGIMCIGYSFLVVLKAMTKNIGDDGGGDDNTFNFSWKVFCSWDYLIGNPETADNKFNSITMNFKEAIIEERAAQVEENIHLIRFLRFLANFFVFLTLGASGYLIFWAVKRSQEFAQQDPDTLGWWEKNEMNMVMSLLGMFCPTLFDLFAELEDYHPLIALKWLLGRIFALLLGNLYVFILALMDEINNKIEEEKLVKANITLWEANMIKAYNESLSGLSGNTTGAPFFVHPADVPRGPCWETMVGQEFVRLTVSDVLTTYVTILIGDFLRACFVRFCNYCWCWDLEYGYPSYTEFDISGNVLALIFNQGMIWMGSFFAPSLPGINILRLHTSMYFQCWAVMCCNVPEARVFKASRSNNFYLGMLLLILFLSTMPVLYMIVSLPPSFDCGPFSGKNRMFEVIGETLEHDFPSWMAKILRQLSNPGLVIAVILVMVLTIYYLNATAKGQKAANLDLKKKMKQQALENKMRNKKMAAARAAAAAGGQ |
| – | – | binds | mCherry-tagged mouse Tmc1 expressed in HEK 293 cells (protein, UniProt Q8R4P5 1-757) MLQIQVEEKEEDTEESSSEEEEDKLPRRESLRPKRKRTRDVINEDDPEPEPEDEETRKAREKERRRRLRRGAEEEEEIDEEELERLKALLDENRQMIATVKCKPWKMEKKIEVLKEAKKFVSENEGALGKGKGKKWFAFKMMMAKKWAKFLRDFENFKAACVPWENKIKAIESQFGSSVASYFLFLRWMYGVNMVLFVLTFSLIMLPEYLWGLPYGSLPRKTVPRAEEASAANFGVLYDFNGLAQYSVLFYGYYDNKRTIGWLNFRLPLSYFLVGIMCIGYSFLVVLKAMTKNIGDDGGGDDNTFNFSWKVFCSWDYLIGNPETADNKFNSITMNFKEAIIEERAAQVEENIHLIRFLRFLANFFVFLTLGASGYLIFWAVKRSQEFAQQDPDTLGWWEKNEMNMVMSLLGMFCPTLFDLFAELEDYHPLIALKWLLGRIFALLLGNLYVFILALMDEINNKIEEEKLVKANITLWEANMIKAYNESLSGLSGNTTGAPFFVHPADVPRGPCWETMVGQEFVRLTVSDVLTTYVTILIGDFLRACFVRFCNYCWCWDLEYGYPSYTEFDISGNVLALIFNQGMIWMGSFFAPSLPGINILRLHTSMYFQCWAVMCCNVPEARVFKASRSNNFYLGMLLLILFLSTMPVLYMIVSLPPSFDCGPFSGKNRMFEVIGETLEHDFPSWMAKILRQLSNPGLVIAVILVMVLTIYYLNATAKGQKAANLDLKKKMKQQALENKMRNKKMAAARAAAAAGGQ |
| – | – | binds | mCherry-tagged mouse Tmc2 expressed in HEK 293 cells (protein, UniProt Q8R4P4 1-888) MSPQLKSLDEEGDKSARRPTRKQTSRAACPQDGHRAQSSRKDPAKGSPRPGSSRKKQMEHGSYHKGLQGQKPRKVERSLQGRKKDRRTSLKEQRASPKKEREALRKEAGKQLRKPRSTSLGSSVSTGDSLSEEELAQILEQVEEKKKLITTVRNKPWPMAKKLRELREAQAFVEKYEGALGKGKGKHLYAYRMMMAKKWVKFKRDFDNFKTQCIPWEMKIKDIESHFGSSVASYFIFLRWMYGVNLVLFGLIFGLVIIPEVLMGMPYGSIPRKTVPRAEEERAMDFSVLWDFEGYIKYSALFYGYYNNQRTIGWLRYRLPMAYFMVGVSVFGYSLMIVIRSMASNTQGSTSEGDSDSFTFSFKMFTSWDYLIGNSETADNKYVSITTSFKESIVDEQESNKEGNIHLTRFLRVLANFLILCCLCGSGYLIYFVVKRSQEFSKMQNVSWYERNEVEIVMSLLGMFCPPLFETIAALENYHPRTGLKWQLGRIFALFLGNLYTFLLALMDDVHLKLSNEEKIKNITHWTLFNYYNSSGGNESVPRPPPHPADVPRGSCWETAVGIEFMRLTVSDMLVTYLTILVGDFLRACFVRFMNHCWCWDLEAGFPSYAEFDISGNVLGLIFNQGMIWMGSFYAPGLVGINVLRLLTSMYFQCWAVMSSNVPHERVFKASRSNNFYMGLLLLVLFLSLLPVAYTVMSLPPSFDCGPFSGKNRMYDVLHETIENDFPKFLGKIFAFLANPGLIIPAILLMFLAIYYLNSVSKSLSRANAQLRKKIQALREVEKNHKSIKGKAIVTYSEDTIKNSSKNATQIHLTKEEPTSHSSSQIQTLDKKAQGPHTSSTEGGASPSTSWHHVGSQPPRGRRDSGQPQSQTYTGRSPSGKRTQRPHN |
